Consider 52 targets from the supplement of paper PMC12067093, “Discovery and optimisation of a covalent ligand for TRIM25 and its application to targeted protein ubiquitination” (Chemical Science, 2025).

Protein sequences, listed by entry. Tags and fused reporters are not part of them. Lines headed by an entry give the natural chain unless they say otherwise; changes in a name come on top.
UniProt P52657, whole entry, looked up: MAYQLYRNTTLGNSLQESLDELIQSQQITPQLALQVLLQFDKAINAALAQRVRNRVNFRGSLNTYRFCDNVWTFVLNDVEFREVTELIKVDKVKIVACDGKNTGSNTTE
UniProt P00390: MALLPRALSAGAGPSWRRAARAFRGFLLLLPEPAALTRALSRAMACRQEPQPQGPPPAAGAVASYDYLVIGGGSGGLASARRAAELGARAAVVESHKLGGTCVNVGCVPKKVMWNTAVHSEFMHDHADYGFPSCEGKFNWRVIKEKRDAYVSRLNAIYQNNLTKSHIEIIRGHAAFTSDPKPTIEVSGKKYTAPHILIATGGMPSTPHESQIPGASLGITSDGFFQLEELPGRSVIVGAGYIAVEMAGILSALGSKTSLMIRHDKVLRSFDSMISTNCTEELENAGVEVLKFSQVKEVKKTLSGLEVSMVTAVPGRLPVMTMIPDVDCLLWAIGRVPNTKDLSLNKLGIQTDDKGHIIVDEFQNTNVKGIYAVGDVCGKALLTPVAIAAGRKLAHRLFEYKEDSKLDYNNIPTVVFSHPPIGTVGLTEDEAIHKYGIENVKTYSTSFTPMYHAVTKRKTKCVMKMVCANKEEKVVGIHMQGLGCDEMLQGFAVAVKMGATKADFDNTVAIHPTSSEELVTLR
UniProt P13807: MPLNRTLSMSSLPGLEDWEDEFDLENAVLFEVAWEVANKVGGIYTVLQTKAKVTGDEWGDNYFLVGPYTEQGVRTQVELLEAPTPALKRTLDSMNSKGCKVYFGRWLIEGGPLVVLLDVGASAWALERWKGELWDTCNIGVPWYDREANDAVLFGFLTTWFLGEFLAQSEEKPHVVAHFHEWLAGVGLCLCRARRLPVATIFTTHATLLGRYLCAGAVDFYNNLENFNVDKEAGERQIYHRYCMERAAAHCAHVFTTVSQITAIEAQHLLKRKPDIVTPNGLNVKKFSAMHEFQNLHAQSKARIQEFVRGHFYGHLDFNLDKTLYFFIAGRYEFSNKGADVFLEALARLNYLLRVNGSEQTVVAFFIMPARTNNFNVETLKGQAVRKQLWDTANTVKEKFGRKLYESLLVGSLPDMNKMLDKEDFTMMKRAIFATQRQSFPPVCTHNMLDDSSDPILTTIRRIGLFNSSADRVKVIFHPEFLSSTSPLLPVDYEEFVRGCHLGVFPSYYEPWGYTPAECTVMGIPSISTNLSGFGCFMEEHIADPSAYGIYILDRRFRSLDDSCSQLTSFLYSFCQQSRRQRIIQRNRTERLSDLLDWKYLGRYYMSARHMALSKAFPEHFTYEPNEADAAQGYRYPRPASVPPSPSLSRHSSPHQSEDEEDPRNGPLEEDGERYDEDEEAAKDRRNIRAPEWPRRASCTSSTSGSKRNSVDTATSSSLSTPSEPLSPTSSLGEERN
UniProt Q14687: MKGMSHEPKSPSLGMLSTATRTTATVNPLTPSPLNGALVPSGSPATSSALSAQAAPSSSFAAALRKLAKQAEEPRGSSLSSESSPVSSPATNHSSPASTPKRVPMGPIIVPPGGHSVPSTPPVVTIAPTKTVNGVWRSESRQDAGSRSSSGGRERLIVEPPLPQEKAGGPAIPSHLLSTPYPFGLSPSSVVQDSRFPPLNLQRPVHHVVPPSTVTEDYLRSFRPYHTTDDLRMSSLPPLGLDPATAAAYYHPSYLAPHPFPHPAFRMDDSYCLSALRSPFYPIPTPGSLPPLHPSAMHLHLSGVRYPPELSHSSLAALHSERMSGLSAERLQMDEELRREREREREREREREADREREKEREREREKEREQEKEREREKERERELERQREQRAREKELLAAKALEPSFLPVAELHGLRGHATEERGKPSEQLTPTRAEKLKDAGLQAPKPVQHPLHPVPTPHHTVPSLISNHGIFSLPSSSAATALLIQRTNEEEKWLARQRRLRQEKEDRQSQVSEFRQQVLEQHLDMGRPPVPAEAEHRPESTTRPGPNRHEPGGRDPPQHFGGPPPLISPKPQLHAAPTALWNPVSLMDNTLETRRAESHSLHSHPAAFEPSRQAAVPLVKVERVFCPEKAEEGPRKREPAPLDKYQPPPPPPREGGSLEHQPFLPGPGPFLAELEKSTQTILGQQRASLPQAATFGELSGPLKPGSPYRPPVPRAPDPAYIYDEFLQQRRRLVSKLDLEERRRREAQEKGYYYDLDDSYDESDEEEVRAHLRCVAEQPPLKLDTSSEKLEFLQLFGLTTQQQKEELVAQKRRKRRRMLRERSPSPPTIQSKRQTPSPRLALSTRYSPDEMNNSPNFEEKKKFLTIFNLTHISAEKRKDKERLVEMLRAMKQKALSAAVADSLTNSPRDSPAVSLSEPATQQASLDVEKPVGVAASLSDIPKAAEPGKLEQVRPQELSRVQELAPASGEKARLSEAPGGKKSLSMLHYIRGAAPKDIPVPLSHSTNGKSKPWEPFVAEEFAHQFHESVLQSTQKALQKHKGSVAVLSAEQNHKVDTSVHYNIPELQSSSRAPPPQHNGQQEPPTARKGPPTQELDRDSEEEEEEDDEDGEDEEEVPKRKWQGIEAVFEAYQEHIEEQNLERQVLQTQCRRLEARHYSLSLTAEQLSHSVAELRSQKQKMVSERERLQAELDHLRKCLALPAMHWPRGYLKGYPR
UniProt Q12789: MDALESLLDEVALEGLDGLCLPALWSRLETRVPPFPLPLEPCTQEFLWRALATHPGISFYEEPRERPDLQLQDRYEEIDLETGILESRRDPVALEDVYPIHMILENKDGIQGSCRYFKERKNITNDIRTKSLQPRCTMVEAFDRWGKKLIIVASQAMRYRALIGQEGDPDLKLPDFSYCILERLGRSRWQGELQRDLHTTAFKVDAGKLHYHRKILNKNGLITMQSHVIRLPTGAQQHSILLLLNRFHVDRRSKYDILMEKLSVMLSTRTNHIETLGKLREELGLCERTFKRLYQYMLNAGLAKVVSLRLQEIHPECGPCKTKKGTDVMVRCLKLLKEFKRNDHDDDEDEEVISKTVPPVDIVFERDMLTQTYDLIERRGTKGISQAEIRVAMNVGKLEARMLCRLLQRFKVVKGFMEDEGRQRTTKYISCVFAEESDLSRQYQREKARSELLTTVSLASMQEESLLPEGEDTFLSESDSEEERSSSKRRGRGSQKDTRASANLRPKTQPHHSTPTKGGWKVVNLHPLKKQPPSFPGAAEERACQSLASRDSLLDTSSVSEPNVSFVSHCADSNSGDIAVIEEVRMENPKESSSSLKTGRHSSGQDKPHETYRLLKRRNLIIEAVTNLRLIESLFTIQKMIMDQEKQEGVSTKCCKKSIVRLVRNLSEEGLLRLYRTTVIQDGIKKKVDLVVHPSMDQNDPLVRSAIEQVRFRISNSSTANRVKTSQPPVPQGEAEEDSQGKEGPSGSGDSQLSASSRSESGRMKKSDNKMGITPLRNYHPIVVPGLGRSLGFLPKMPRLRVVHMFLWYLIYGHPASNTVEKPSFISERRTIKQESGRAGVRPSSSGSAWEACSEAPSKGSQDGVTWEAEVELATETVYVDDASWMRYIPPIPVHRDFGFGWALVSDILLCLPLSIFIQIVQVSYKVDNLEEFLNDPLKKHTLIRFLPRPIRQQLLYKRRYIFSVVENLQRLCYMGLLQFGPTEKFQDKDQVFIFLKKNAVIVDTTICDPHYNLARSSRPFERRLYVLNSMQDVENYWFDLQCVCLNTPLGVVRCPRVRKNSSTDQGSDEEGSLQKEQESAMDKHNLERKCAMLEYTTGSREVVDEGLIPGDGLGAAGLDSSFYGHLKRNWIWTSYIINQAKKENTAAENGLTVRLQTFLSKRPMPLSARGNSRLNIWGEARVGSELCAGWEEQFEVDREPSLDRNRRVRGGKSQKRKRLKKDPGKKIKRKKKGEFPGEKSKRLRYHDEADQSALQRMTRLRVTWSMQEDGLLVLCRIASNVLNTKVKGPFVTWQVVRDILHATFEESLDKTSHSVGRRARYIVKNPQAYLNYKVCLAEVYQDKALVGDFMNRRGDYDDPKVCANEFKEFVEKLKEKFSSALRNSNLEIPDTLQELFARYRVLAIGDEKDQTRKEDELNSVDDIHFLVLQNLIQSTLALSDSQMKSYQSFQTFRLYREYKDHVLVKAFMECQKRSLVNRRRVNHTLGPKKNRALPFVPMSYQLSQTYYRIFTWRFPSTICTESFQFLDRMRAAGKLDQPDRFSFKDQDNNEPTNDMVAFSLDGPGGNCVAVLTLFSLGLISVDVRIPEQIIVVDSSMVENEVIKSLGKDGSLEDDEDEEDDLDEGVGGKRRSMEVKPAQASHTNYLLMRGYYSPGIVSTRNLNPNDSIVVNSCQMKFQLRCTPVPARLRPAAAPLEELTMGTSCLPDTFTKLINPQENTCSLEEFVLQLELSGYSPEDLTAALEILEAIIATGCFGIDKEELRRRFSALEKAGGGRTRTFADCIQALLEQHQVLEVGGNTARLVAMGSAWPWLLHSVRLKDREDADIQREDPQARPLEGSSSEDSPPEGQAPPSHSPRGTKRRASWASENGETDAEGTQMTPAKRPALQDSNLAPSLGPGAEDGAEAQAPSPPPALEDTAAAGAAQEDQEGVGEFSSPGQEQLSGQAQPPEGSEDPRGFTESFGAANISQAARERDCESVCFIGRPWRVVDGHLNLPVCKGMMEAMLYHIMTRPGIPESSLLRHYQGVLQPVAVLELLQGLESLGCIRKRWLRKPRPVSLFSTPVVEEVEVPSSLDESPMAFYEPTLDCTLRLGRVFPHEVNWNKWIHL
UniProt P28799: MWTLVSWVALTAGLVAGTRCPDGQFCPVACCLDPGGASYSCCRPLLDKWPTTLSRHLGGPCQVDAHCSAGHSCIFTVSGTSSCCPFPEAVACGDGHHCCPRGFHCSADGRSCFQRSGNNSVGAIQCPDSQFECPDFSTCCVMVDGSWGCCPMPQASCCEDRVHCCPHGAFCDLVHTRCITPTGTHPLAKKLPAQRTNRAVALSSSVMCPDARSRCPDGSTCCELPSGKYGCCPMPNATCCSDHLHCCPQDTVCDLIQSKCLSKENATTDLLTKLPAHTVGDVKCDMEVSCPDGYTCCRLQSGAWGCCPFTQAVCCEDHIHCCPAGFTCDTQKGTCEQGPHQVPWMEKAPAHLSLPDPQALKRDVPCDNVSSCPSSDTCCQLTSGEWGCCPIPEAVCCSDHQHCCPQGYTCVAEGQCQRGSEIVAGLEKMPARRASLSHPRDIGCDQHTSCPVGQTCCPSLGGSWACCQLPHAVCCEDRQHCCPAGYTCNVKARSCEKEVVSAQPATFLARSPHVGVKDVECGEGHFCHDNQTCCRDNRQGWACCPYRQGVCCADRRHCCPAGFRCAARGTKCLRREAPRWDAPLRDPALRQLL
UniProt P78347: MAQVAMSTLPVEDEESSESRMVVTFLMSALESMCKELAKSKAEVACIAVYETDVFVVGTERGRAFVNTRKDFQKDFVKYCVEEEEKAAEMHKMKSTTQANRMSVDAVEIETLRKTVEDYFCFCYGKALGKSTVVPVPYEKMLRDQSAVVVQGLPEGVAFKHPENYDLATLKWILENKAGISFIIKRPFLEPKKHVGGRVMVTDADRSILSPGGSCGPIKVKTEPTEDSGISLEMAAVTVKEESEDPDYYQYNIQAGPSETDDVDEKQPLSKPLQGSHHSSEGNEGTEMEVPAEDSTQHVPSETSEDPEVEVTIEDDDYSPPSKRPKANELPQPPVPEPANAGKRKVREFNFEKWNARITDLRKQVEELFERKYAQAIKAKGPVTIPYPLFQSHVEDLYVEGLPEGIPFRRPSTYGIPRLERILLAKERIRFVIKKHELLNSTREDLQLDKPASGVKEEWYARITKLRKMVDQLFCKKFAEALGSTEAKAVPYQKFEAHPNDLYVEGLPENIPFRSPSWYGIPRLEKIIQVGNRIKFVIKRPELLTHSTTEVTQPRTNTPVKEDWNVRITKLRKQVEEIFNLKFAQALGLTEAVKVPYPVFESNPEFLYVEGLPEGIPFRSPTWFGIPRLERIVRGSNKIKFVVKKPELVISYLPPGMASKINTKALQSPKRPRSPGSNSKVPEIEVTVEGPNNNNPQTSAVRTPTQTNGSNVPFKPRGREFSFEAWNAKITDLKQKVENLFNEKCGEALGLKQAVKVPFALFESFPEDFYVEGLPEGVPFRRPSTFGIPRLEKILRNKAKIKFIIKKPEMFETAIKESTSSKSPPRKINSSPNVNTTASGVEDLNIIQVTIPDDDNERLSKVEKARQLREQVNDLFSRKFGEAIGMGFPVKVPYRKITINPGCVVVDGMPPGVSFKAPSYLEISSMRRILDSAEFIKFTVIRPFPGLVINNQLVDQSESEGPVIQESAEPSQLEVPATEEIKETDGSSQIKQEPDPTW
UniProt P07203, whole entry, looked up: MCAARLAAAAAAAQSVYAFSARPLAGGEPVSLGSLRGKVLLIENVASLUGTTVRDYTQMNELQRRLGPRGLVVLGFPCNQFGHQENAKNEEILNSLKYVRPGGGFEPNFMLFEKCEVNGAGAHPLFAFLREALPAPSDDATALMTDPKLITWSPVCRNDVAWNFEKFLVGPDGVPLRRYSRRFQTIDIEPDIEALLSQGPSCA

The other results are listed elsewhere or left out.

Compound in this experiment: Cc1cc(ccc1-c1ccccc1)C(=O)N1CCCN(CC1)C(=O)CCl [compound 10]
In words: probe-labelled cysteine peptide fold change vs DMSO (competition) (log2 fold change); higher = less target engagement (more negative = stronger competition). The note with it: THP-1, incubation time: 4 h.
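Also: competitive profiling in live THP-1 cells: cysteine peptides tagged with an iodoacetamide desthiobiotin (IA-DTB) probe, intensity after compound treatment relative to DMSO-treated cells.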

Regarding “GTF2A2_P52657_68_FCDNVWTFVLNDVEFR (UniProt P52657)”, the “probe-labelled cysteine peptide fold change” value (10 µM) came to 0.00888 and the “probe-labelled cysteine peptide fold change” value (50 µM) is 0.217.

Regarding “HADHA_P40939_747_QFTPCQLLADHANSPNK (UniProt P40939)”, the “probe-labelled cysteine peptide fold change” value is -0.314 (10 µM) and 0.0963 (50 µM).

Turning to “GTF2A2_P52657_98_IVACDGK (UniProt P52657)”, the “probe-labelled cysteine peptide fold change” value runs as follows: (10 µM) -0.17; (50 µM) -0.0648.

Consider “GTF3C3_Q9Y5Q9_172_GEREEAILMCMEIIR (UniProt Q9Y5Q9)”, for which the “probe-labelled cysteine peptide fold change” value by setting is: (10 µM) 0.044; (50 µM) 0.268.

Regarding “GSR_P00390_134_KVMWNTAVHSEFMHDHADYGFPSCEGK (UniProt P00390)”, the “probe-labelled cysteine peptide fold change” value was -0.0339 (10 µM) and -0.551 (50 µM).

For “GSTM3_P21266_39_RYTCGEAPDYDR (UniProt P21266)”, the “probe-labelled cysteine peptide fold change” value came out at 0.0259 (10 µM) and 0.0566 (50 µM).

Consider “GSTM1_P09488_174_CLDAFPNLK (UniProt P09488)”, for which the “probe-labelled cysteine peptide fold change” value was 0.0348 (10 µM) and 0.0737 (50 µM).

Regarding “HACE1_Q8IYU2_172_TELLHDLVQHVSDVDVEDAMGQTALHVACQNGHK (UniProt Q8IYU2)”, the “probe-labelled cysteine peptide fold change” value (10 µM) came to 0.096 and the “probe-labelled cysteine peptide fold change” value (50 µM) is 0.0207.

Consider “GTF2IRD1_Q9UHL9_277_QEAPSCPLAPSDLGLSR (UniProt Q9UHL9)”, for which the “probe-labelled cysteine peptide fold change” value reads like this: (10 µM) -0.108; (50 µM) -0.849.

In the case of “GYS1_P13807_575_SLDDSCSQLTSFLYSFCQQSR (UniProt P13807)”, the “probe-labelled cysteine peptide fold change” value is, setting by setting: (10 µM) 0.357; (50 µM) -0.227.

As to “GTF3C2_Q8WUA4_608_LYPFQCFLAHDQAVR (UniProt Q8WUA4)”, the “probe-labelled cysteine peptide fold change” value (10 µM) is -0.104 and the “probe-labelled cysteine peptide fold change” value (50 µM) worked out at 0.0288.

As to “GSTCD_Q8NEC7_335_CGIQFLHLPK (UniProt Q8NEC7)”, the “probe-labelled cysteine peptide fold change” value was -0.0747 (10 µM) and -0.151 (50 µM).

As to “GSDME_O60443_168_CVISEHMQVEEK (UniProt O60443)”, the “probe-labelled cysteine peptide fold change” value was -0.0652 (10 µM) and -0.091 (50 µM).

As for “GRK2_P25098_154_QVPPDLFQPYIEEICQNLR (UniProt P25098)”, the “probe-labelled cysteine peptide fold change” value was 0.231 (10 µM) and 0.311 (50 µM).

On to “GTF3C5_Q9Y5Q8_26_MVCVEYPGVVR (UniProt Q9Y5Q8)”, for which the “probe-labelled cysteine peptide fold change” value is 0.0288 (10 µM) and -0.122 (50 µM).

Consider “GRHPR_Q9UBQ7_57_GVAGAHGLLCLLSDHVDKR (UniProt Q9UBQ7)”, for which the “probe-labelled cysteine peptide fold change” value is, setting by setting: (10 µM) 0.0524; (50 µM) -0.0645.

On to “GSN_P06396_215_ATEVPVSWESFNNGDCFILDLGNNIHQWCGSNSNR (UniProt P06396)”, for which the “probe-labelled cysteine peptide fold change” value by setting is: (10 µM) -0.128; (50 µM) -0.225.

In the case of “HAUS4_Q9H6D7_213_LAEVLVGEQQQCQDAK (UniProt Q9H6D7)”, the “probe-labelled cysteine peptide fold change” value (10 µM) is -0.0337 and the “probe-labelled cysteine peptide fold change” value (50 µM) is 0.0347.

For the target “GRSF1_Q12849_476_YIELFLNSCPK (UniProt Q12849)”, the “probe-labelled cysteine peptide fold change” value was -0.167 (10 µM) and -0.33 (50 µM).

Turning to “GSE1_Q14687_1199_CLALPAMHWPR (UniProt Q14687)”, the “probe-labelled cysteine peptide fold change” value runs as follows: (10 µM) 0.254; (50 µM) 0.135.

Turning to “GSN_P06396_215_ATEVPVSWESFNNGDCFILDLGNNIHQWCGSNSNRYER (UniProt P06396)”, the “probe-labelled cysteine peptide fold change” value (10 µM) was -0.0107 and the “probe-labelled cysteine peptide fold change” value (50 µM) was -0.304.

Take “HAGH_Q16775_157+164_CLATPCHTSGHICYFVSK (UniProt Q16775)”: the “probe-labelled cysteine peptide fold change” value runs as follows: (10 µM) 0.228; (50 µM) 0.406.

Consider “GTPBP1_O00178_360_MCPIFQISNVTGENLDLLK (UniProt O00178)”, for which the “probe-labelled cysteine peptide fold change” value turned out to be 0.165 (10 µM) and 0.0838 (50 µM).

In the case of “HASPIN_Q8TF76_219_ASLPCSQEEATGGAK (UniProt Q8TF76)”, the “probe-labelled cysteine peptide fold change” value by setting is: (10 µM) -0.236; (50 µM) -0.32.

Take “GTF3C1_Q12789_1704_LRPAAAPLEELTMGTSCLPDTFTK (UniProt Q12789)”: the “probe-labelled cysteine peptide fold change” value was -0.2 (10 µM) and -0.0592 (50 µM).

As for “GTPBP4_Q9BZE4_261_AAVLYVMDLSEQCGHGLR (UniProt Q9BZE4)”, the “probe-labelled cysteine peptide fold change” value came out at 0.331 (10 µM) and 0.25 (50 µM).

In the case of “GTF2B_Q00403_15_VTCPNHPDAILVEDYR (UniProt Q00403)”, the “probe-labelled cysteine peptide fold change” value reads like this: (10 µM) 0.0452; (50 µM) 0.227.

“GRN_P28799_534_DVECGEGHFCHDNQTCCR (UniProt P28799)”: the “probe-labelled cysteine peptide fold change” value (10 µM) is -0.158 and the “probe-labelled cysteine peptide fold change” value (50 µM) was -0.0628.

Regarding “GRB10_Q13322_363_QYNAPTDHGLCIKPNK (UniProt Q13322)”, the “probe-labelled cysteine peptide fold change” value (10 µM) is -0.0848 and the “probe-labelled cysteine peptide fold change” value (50 µM) was -0.163.

For the target “GYG1_P46976_89_LHCWSLTQYSK (UniProt P46976)”, the “probe-labelled cysteine peptide fold change” value is, setting by setting: (10 µM) 0.0736; (50 µM) 0.246.

For the target “H6PD_O95479_95_DMAPSHCAEHK (UniProt O95479)”, the “probe-labelled cysteine peptide fold change” value was -0.0877 (10 µM) and -0.0215 (50 µM).

As for “GTF2I_P78347_903_ITINPGCVVVDGMPPGVSFK (UniProt P78347)”, the “probe-labelled cysteine peptide fold change” value worked out at 0.0896 (10 µM) and 0.0775 (50 µM).

For “GYS1_P13807_564_SLDDSCSQLTSFLYSFCQQSR (UniProt P13807)”, the “probe-labelled cysteine peptide fold change” value by setting is: (10 µM) -0.199; (50 µM) -0.242.

Regarding “HARS2_P49590_274_IGDYVQCHGGVSLVEQMFQDPR (UniProt P49590)”, the “probe-labelled cysteine peptide fold change” value (10 µM) is -0.0884 and the “probe-labelled cysteine peptide fold change” value (50 µM) is -0.182.

“H2AFY_O75367_297_NCLALADDKK (UniProt O75367)”: the “probe-labelled cysteine peptide fold change” value is, setting by setting: (10 µM) 0.106; (50 µM) 0.0661.

On to “GSTCD_Q8NEC7_466_IVDFCSGGGHVGIVLAHMLPSCQVTLIENK (UniProt Q8NEC7)”, for which the “probe-labelled cysteine peptide fold change” value runs as follows: (10 µM) -0.00281; (50 µM) -0.325.

Take “GTF3C1_Q12789_1336_VCLAEVYQDK (UniProt Q12789)”: the “probe-labelled cysteine peptide fold change” value is, setting by setting: (10 µM) -0.00209; (50 µM) 0.174.

“GPX1_P07203_156_LITWSPVCR (UniProt P07203)”: the “probe-labelled cysteine peptide fold change” value (10 µM) was 0.0327 and the “probe-labelled cysteine peptide fold change” value (50 µM) was -0.0674.

Consider “GSTCD_Q8NEC7_592_QCMCLVDLDR (UniProt Q8NEC7)”, for which the “probe-labelled cysteine peptide fold change” value (10 µM) was -0.0108 and the “probe-labelled cysteine peptide fold change” value (50 µM) is -0.398.

In the case of “GRN_P28799_178_CITPTGTHPLAK (UniProt P28799)”, the “probe-labelled cysteine peptide fold change” value runs as follows: (10 µM) -0.279; (50 µM) -0.341.

For the target “GPX1_P07203_78_GLVVLGFPCNQFGHQENAKNEEILNSLK (UniProt P07203)”, the “probe-labelled cysteine peptide fold change” value by setting is: (10 µM) -0.208; (50 µM) -1.3.

Take “GPT2_Q8TD30_432_LTEDLFNQVPGIHCNPLQGAMYAFPR (UniProt Q8TD30)”: the “probe-labelled cysteine peptide fold change” value runs as follows: (10 µM) -0.102; (50 µM) -0.151.

Turning to “GTPBP4_Q9BZE4_174_TLLLCGYPNVGK (UniProt Q9BZE4)”, the “probe-labelled cysteine peptide fold change” value by setting is: (10 µM) 0.0273; (50 µM) 0.00405.

For “GUSB_P08236_396_TSHYPYAEEVMQMCDR (UniProt P08236)”, the “probe-labelled cysteine peptide fold change” value is 0.365 (10 µM) and 0.174 (50 µM).

As to “GTF2I_P78347_46_SKAEVACIAVYETDVFVVGTER (UniProt P78347)”, the “probe-labelled cysteine peptide fold change” value reads like this: (10 µM) 0.101; (50 µM) -0.0972.

As for “HARS_P12081_379_VPCVGLSIGVER (UniProt P12081)”, the “probe-labelled cysteine peptide fold change” value is -0.017 (10 µM) and 0.285 (50 µM).

Consider “GRPEL2_Q8TAA5_182_LTPIGDKYDPHEHELICHVPAGVGVQPGTVALVR (UniProt Q8TAA5)”, for which the “probe-labelled cysteine peptide fold change” value (10 µM) was -0.125 and the “probe-labelled cysteine peptide fold change” value (50 µM) is -0.298.

On to “GTF3C1_Q12789_1188_VGSELCAGWEEQFEVDREPSLDR (UniProt Q12789)”, for which the “probe-labelled cysteine peptide fold change” value is, setting by setting: (10 µM) -0.451; (50 µM) -0.678.

“GRN_P28799_533_DVECGEGHFCHDNQTCCR (UniProt P28799)”: the “probe-labelled cysteine peptide fold change” value runs as follows: (10 µM) -0.112; (50 µM) -0.601.

In the case of “GSTO1_P78417_192_LNECVDHTPK (UniProt P78417)”, the “probe-labelled cysteine peptide fold change” value by setting is: (10 µM) 0.0376; (50 µM) 0.0717.

Regarding “GSR_P00390_102_LGGTCVNVGCVPK (UniProt P00390)”, the “probe-labelled cysteine peptide fold change” value by setting is: (10 µM) -0.183; (50 µM) -0.149.

Turning to “GSE1_Q14687_777_CVAEQPPLK (UniProt Q14687)”, the “probe-labelled cysteine peptide fold change” value was -0.258 (10 µM) and -0.204 (50 µM).
